The structures appear in SMILES notation. Some of the results follow. Values are raw readings; no control value is given beside them.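 In the initial screen, polymyxin B was used at a concentration that permeabilizes Salmonella's outer membrane but not its inner membrane. Maximum growth was set by DMSO wells with or without polymyxin B. Since plates varied, data were ranked per plate, and compounds giving the lowest OD600 advanced as hits.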

This experiment has as its system Salmonella enterica serovar Typhimurium SL1344. The experiment can be described thus: bacterial growth OD600 after 18 h with compound and polymyxin B; higher = more bacterial growth (less inhibition). The conditions noted are these: 50 µM, Mueller-Hinton broth.

Regarding `CN(CCC1CCOCC1)C(=O)c1cc(Cn2ccc3ccccc32)[nH]n1`, the “bacterial growth OD600” value (polymyxin B 0.75 µg/mL) came to 0.801. `COCc1noc(-c2ccc(N(C)CC3CCOCC3)nc2)n1`: the “bacterial growth OD600” value (polymyxin B 1 µg/mL) turned out to be 0.843. As to `CCn1nc(C)c(CN2CCC3(CC2)c2ccccc2[C@@H](NC(=O)c2ccco2)[C@@H]3OC)c1C`, for the setting “polymyxin B 0.75 µg/mL”, the “bacterial growth OD600” value was determined as 0.778. On the same count and under the same terms, under `Cc1cc(CNC2CCN(c3ccc(C(=O)NCCN4CCOCC4)cc3)CC2)nn1C` stands 0.907. As to `CC(C)(O)C#Cc1ccc(C(=O)N2CCCC(C(=O)c3ccc4c(c3)OCO4)C2)o1` (centres undefined), the “bacterial growth OD600” value (polymyxin B 1 µg/mL) amounted to 0.837. As to `CCN1CCN(C(=O)c2ccc(N3CCC(N4CCOc5ccc(Cl)cc5C4)CC3)cc2)CC1`, the “bacterial growth OD600” value (polymyxin B 0.75 µg/mL) was found to be 0.793. On to `CC(C)CN1CCC(C(=O)Nc2ccc(Oc3ccccc3F)cc2)CC1`, for which the “bacterial growth OD600” value (polymyxin B 1 µg/mL) is 0.885. Still for that read-out and setting: under `CC(C)CN(CC1CCN(C2Cc3ccccc3C2)CC1)CC1CCCO1` (centres undefined) stands 0.738.

Turning to `COCCO[C@H]1[C@H](NC(=O)C(C)C)c2ccccc2C12CCN(C(=O)c1cccc(F)c1F)CC2`, the “bacterial growth OD600” value (polymyxin B 0.75 µg/mL) amounted to 0.819. With `CCCS(=O)(=O)N1CCC(C2CCN(c3ncccn3)CC2)C1` (centres undefined), the “bacterial growth OD600” value (polymyxin B 0.75 µg/mL) stood at 0.847. For `O=C(c1ccccn1)N1CCCC(CCc2c(F)cccc2F)C1` (centres undefined), the “bacterial growth OD600” value (polymyxin B 0.75 µg/mL) is 0.847. Same read-out and setting: under `CO[C@H]1[C@H](NC(=O)c2ccco2)c2ccccc2C12CCN(Cc1cc(C(C)C)[nH]n1)CC2` stands 0.963; under `CC(NC(=O)CCC1(Cc2ccc3ccccc3c2)CCC(=O)N1)c1cnn(-c2ccccc2)c1` (centres undefined), 0.768. As to `CC(C)c1ccc(NC2CCCN(C(=O)C3=NN(C)C(=O)CC3)C2)cc1` (centres undefined), the “bacterial growth OD600” value (polymyxin B 1 µg/mL) worked out at 1.04. Regarding `COc1ccc(-c2nn(-c3ccccc3F)cc2CN2CCC[C@H]2CO)cc1`, the “bacterial growth OD600” value (polymyxin B 1 µg/mL) stood at 0.901.

With `COCCC(=O)Nc1cc(C(=O)NC2CCS(=O)(=O)C2)cc2nc(-c3ccccc3)n(C)c12` (centres undefined), the “bacterial growth OD600” value (polymyxin B 0.75 µg/mL) turned out to be 0.824. Still for that read-out and setting: under `O=C(c1ccc(N2CCCOCC2)nc1)N1CCC(CCn2cccn2)CC1` stands 0.965; under `COC(=O)C1CCCCN1Cc1nc(N(C)Cc2ccc(OC)c(OC)c2)c2ccccc2n1` (centres undefined), 0.586.

On to `CC(C)Oc1ccc(C(=O)NCC2Cc3c(F)ccc(-c4ccncc4)c3O2)cc1` (centres undefined), for which the “bacterial growth OD600” value (polymyxin B 0.75 µg/mL) came out at 0.616.

Source of the values: the supplement of paper PMC12889115.
